PubChem BioAssay AID504791 | Drosophila RNAi Screening Center, 2011
The screen tested about 23,000 reagents; shown is a random part of those that have a named target and a result. In the full data, 199 (0.86%) were called active. 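Plate-scaled ratios behind the calls are not deposited; printed light signals are raw; many rows marked increased or decreased are still called inactive.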 Unmarked entries are inactive. Names joined by + are all predicted targets of the reagent. Reagent sequences are not shown. Not given: the direction of the score.

Assay: 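Genes whose knock-down strengthens or weakens small-RNA reporter silencing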 (primary screen)
Cell system: Drosophila S2-derived reporter cells
Reagents: long dsRNA against Drosophila genes, about 150-250 ng dsRNA per well (siRNA assay); about 80-120 ng (miRNA assay)
Timing: about 5 days (siRNA assay); about 4 days (miRNA assay)
Conditions: copper sulfate induction of reporters: 25 µM (siRNA assay); 200 mM stated (miRNA assay), 1-2 days before reading
Read-out: 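Dual luciferase assay: Renilla to firefly signal ratio in each well, scaled to the mean ratio of its plate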
Hit rule: 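a well was a first-pass pick when its plate-scaled ratio rose above 1.5 (siRNA assay) or 1.6 (miRNA assay), or dropped below 0.6; a gene counted only if two separate dsRNAs agreed on retest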

no.	predicted target	amplicon	stable siRNA reporter change	miRNA reporter change	stable assay Renilla, run 1 (luminescence)	stable assay firefly, run 1 (luminescence)
1	Hacd1 (3-hydroxyacyl-CoA dehydratase 1)	DRSC02988			7207	3.50e5
2	CG4393	DRSC15573			6455	3.53e5
3	CG13711	DRSC08320			6635	4.49e5
4	Fkbp59 (FK506-binding protein 59kD)	DRSC03323			7272	3.98e5
5	Prps (Phosphoribosyl pyrophosphate synthetase)	DRSC08994	reporter ratio lowered past the hit cutoff		2352	3.18e5
6	Prps (Phosphoribosyl pyrophosphate synthetase)	DRSC10707			3544	2.34e5
7	Prps (Phosphoribosyl pyrophosphate synthetase)	DRSC10708			3404	2.42e5
8	CG14535	DRSC02393			7602	3.33e5
9	Prosbeta1 (Proteasome beta1 subunit)	DRSC07159		reporter ratio raised past the hit cutoff (active)	13307	3.32e5
10	La (La autoantigen-like)	DRSC03358			8620	5.50e5
11	Ugt303B2 (UDP-glycosyltransferase family 303 member B2)	DRSC14198			7590	3.28e5
12	Ugt303B2 (UDP-glycosyltransferase family 303 member B2)	DRSC22864			5575	5.82e5
13	CG8677	DRSC03107		reporter ratio raised past the hit cutoff	10064	4.64e5
14	CG30114	DRSC05707			6762	3.73e5
15	Or42b (Odorant receptor 42b)	DRSC04913			7399	4.32e5
16	CG44837	DRSC10133			5103	2.32e5
17	CG44837	DRSC10558			5715	2.95e5
18	CG30350	DRSC07690			6742	4.76e5
19	D19A	DRSC11133		reporter ratio raised past the hit cutoff	8095	3.76e5
20	CG3308	DRSC15474			9008	3.40e5
21	CG4198	DRSC18354			6514	5.07e5
22	lab (labial)	DRSC12627			7631	3.37e5
23	OdsH (Ods-site homeobox)	DRSC20263			5991	5.29e5
24	GalT1 (beta1,3-galactosyltransferase 1)	DRSC22238			9451	6.05e5
25	CG15330	DRSC18014			4991	2.66e5
26	CG5902	DRSC15912			8002	3.94e5
27	EMC6 (ER membrane protein complex subunit 6)	DRSC14386			6306	2.84e5
28	RpL14 (Ribosomal protein L14)	DRSC11269		reporter ratio lowered past the hit cutoff	8003	4.26e5
29	Gr64d + Gr64e	DRSC08446			5283	4.79e5
30	CG14435	DRSC17928			4508	2.00e5
31	CG14435	DRSC23282			2991	2.55e5
32	CG32563	DRSC19934			5778	4.06e5
33	CG5883	DRSC10552			5799	3.74e5
34	CG12835 (retired record)	DRSC06181			10401	4.16e5
35	Cpr64Aa (Cuticular protein 64Aa)	DRSC08460			6023	3.51e5
36	CG12917	DRSC06231			6800	4.30e5
37	Cyp4p3 (Cytochrome P450 4p3)	DRSC07374			5834	3.47e5
38	nis	DRSC00290			15578	1.14e5
39	CG30279 (retired record)	DRSC22417			5907	5.84e5
40	Nckx30C	DRSC02686			7451	3.89e5
41	Nckx30C	DRSC02687			7287	4.04e5
42	Nckx30C	DRSC02688			7871	4.67e5
43	Nckx30C	DRSC02689			7977	4.04e5
44	CG43367 + CG32252 (retired record)	DRSC21715			8612	5.72e5
45	Zir (Zizimin-related)	DRSC00307			10916	4.70e5
46	Rif1 (Rap1 interacting factor 1)	DRSC05593			7820	4.65e5
47	Lsp1beta (Larval serum protein 1 beta)	DRSC00757			33406	2.17e5
48	Ppt1 (Palmitoyl-protein thioesterase 1)	DRSC17806			6007	3.34e5
49	CG17778	DRSC18504			7662	6.63e5
50	Hers (Histone gene-specific Epigenetic Repressor in late S phase)	DRSC19429			7666	4.81e5
51	Hers (Histone gene-specific Epigenetic Repressor in late S phase)	DRSC19676			5038	5.26e5
52	CG42329	DRSC00373			7530	4.13e5
53	CG42329	DRSC00682			7250	3.64e5
54	CG6628	DRSC10679			5915	3.34e5
55	Prosbeta3 (Proteasome beta3 subunit)	DRSC16801	reporter ratio raised past the hit cutoff (active)		8724	2.71e5
56	Rsph1 (Radial spoke head protein 1)	DRSC02864			9451	4.66e5
57	CG33299	DRSC01085			4975	4.23e5
